The supplement of paper PMC4604168 (melanoma cell lines)
This is one part of the list. Single values are uncertain, as repeats are few or missing.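 Imaging used 1,536-well plates; nuclei positive for cleaved PARP by antibody were divided by total DNA-stained nuclei to yield the apoptosis fraction. Doses for screening kept most cells viable, and cell lines differ markedly in resting and induced cleaved-PARP levels.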

Columns and labels:
Test in all cases: cleaved PARP positive nuclei fraction relative to DMSO control; melanoma cells; higher = more apoptosis
Conditions in all cases: library dose: low library concentration; 72 h
MZ2-MEL = system: MZ2-MEL
MeWo = system: MeWo
RPMI7951 = system: RPMI7951
RVH-421 = system: RVH-421
SkMel28 = system: SkMel28
SkMel2 = system: SkMel2
SkMel30 = system: SkMel30
SkMel5 = system: SkMel5
UACC257 = system: UACC257
UACC62 = system: UACC62

| Compound | cleaved PARP positive nuclei fraction (MZ2-MEL) [%] | cleaved PARP positive nuclei fraction (MeWo) [%] | cleaved PARP positive nuclei fraction (RPMI7951) [%] | cleaved PARP positive nuclei fraction (RVH-421) [%] | cleaved PARP positive nuclei fraction (SkMel28) [%] | cleaved PARP positive nuclei fraction (SkMel2) [%] | cleaved PARP positive nuclei fraction (SkMel30) [%] | cleaved PARP positive nuclei fraction (SkMel5) [%] | cleaved PARP positive nuclei fraction (UACC257) [%] | cleaved PARP positive nuclei fraction (UACC62) [%] |
| --- | --- | --- | --- | --- | --- | --- | --- | --- | --- | --- |
| NC1(c2ccc(-c3nc4ccn5c(=O)[nH]nc5c4cc3-c3ccccc3)cc2)CCC1 + NCC(=O)Nc1ccc(-n2nc(C(F)(F)F)cc2-c2ccc3c(ccc4ccccc43)c2)cc1 [OSU03012] (first compound 0.4 µM, partner dose 1 µM) | 44 | 67.1 | 66 | 26.3 | 77.4 | 78.5 | 112 | 95.2 | 268 | 368 |
| NC(=O)c1ccc(N(C(N)=O)c2c(F)cccc2F)nc1-c1ccc(F)cc1F + C=CCn1c(=O)c2cnc(Nc3ccc(N4CCN(C)CC4)cc3)nc2n1-c1cccc(C(C)(C)O)n1 [MK1775] (first compound 0.4 µM, partner dose 0.02 µM) | 88.9 | 193 | 49.6 | 102 | 177 | 97.7 | 130 | 41.2 | 48.5 | 55.5 |
| CCN(CC)CCNC(=O)c1c(C)[nH]c(/C=C2\C(=O)Nc3ccc(F)cc32)c1C [sunitinib] + C[C@@H]1CCN(C(=O)CC#N)C[C@@H]1N(C)c1ncnc2[nH]ccc12 [CP690550] (first compound 0.4 µM, partner dose 1 µM) | 61.8 | 99.8 | 63.6 | 32.2 | 306 | 82 | 124 | 184 | 85.3 | 31.1 |
| COc1ccc(C2=N[C@@H](c3ccc(Cl)cc3)[C@@H](c3ccc(Cl)cc3)N2C(=O)N2CCNC(=O)C2)c(OC(C)C)c1 [Nutlin-3] + O=C(O)C(=O)Nc1sc2c(c1C(=O)O)CCNC2 [TCS401] (first compound 0.1 µM, partner dose 1.66667 µM) | 97.5 | 91.7 | 129 | 170 | 125 | 111 | 146 | 185 | 22.1 | 269 |
| C[C@@H](N)c1ccc(C(=O)Nc2ccnc3[nH]ccc23)cc1 + Cc1ccc(NC(=O)c2cccc(N(C)C)c2)cc1NC(=O)c1ccc(O)cc1 [ZM336372] (first compound 0.4 µM, partner dose 2 µM) | 179 | 107 | 107 | 77.5 | 167 | 118 | 67.5 | 109 | 123 | 105 |
| CC1(C)CCC(c2ccc(Cl)cc2)=C(CN2CCN(c3ccc(C(=O)NS(=O)(=O)c4ccc(N[C@H](CCN5CCOCC5)CSc5ccccc5)c(S(=O)(=O)C(F)(F)F)c4)cc3)CC2)C1 + Cc1cc([N+](=O)[O-])ccc1NS(=O)(=O)c1cc(Cl)ccc1Cl [FH535] (first compound 0.4 µM, partner dose 1 µM) | 139 | 447 | 148 | 147 | 164 | 103 | 169 | 2050 | 161 | 116 |
| Cn1sc(=O)n(Cc2ccccc2)c1=O + NC(=O)Nc1cc(-c2cccc(F)c2)sc1C(=O)N[C@H]1CCCNC1 [AZD7762] (first compound 0.4 µM, partner dose 0.02 µM) | 151 | 117 | 116 | 166 | 47.1 | 103 | 76 | 43.2 | 130 | 46.8 |
| CS(=O)(=O)c1ccc(C(=O)Nc2ccc(Cl)c(-c3ccccn3)c2)c(Cl)c1 [vismodegib] + CCCCCCCCCCCC1=C(O)C(=O)C=C(O)C1=O [Embelin] (first compound 1 µM, partner dose 1.2 µM) | 19.6 | 133 | 49.3 | 258 | 102 | 95.2 | 34.9 | 69.9 | 103 | 183 |
| CCCCCCCCc1ccc(CCC(N)(CO)CO)cc1 [fingolimod] + COc1ccc(-c2ccc3c(N4CCOCC4)nc(N4C[C@@H](C)O[C@@H](C)C4)nc3n2)cc1CO [KU0063794] (first compound 2 µM, partner dose 0.02 µM) | 109 | 39.1 | 190 | 40.5 | 349 | 144 | 394 | 171 | 319 | 195 |
| C[C@@H](N)c1ccc(C(=O)Nc2ccnc3[nH]ccc23)cc1 + COC(=O)c1sccc1S(=O)(=O)Nc1ccc(Nc2ccccc2)cc1OC [GSK0660] (first compound 0.4 µM, partner dose 1 µM) | 199 | 126 | 39 | 341 | 177 | 73.3 | 116 | 189 | 78.7 | 176 |

Exported in CSV form: part of the list above
Compound,cleaved PARP positive nuclei fraction (MZ2-MEL) [%],cleaved PARP positive nuclei fraction (MeWo) [%],cleaved PARP positive nuclei fraction (RPMI7951) [%],cleaved PARP positive nuclei fraction (RVH-421) [%],cleaved PARP positive nuclei fraction (SkMel28) [%],cleaved PARP positive nuclei fraction (SkMel2) [%],cleaved PARP positive nuclei fraction (SkMel30) [%],cleaved PARP positive nuclei fraction (SkMel5) [%],cleaved PARP positive nuclei fraction (UACC257) [%],cleaved PARP positive nuclei fraction (UACC62) [%]
"COc1ccc(C2=N[C@@H](c3ccc(Cl)cc3)[C@@H](c3ccc(Cl)cc3)N2C(=O)N2CCNC(=O)C2)c(OC(C)C)c1 [Nutlin-3] + O=C(O)C(=O)Nc1sc2c(c1C(=O)O)CCNC2 [TCS401] (first compound 0.1 µM, partner dose 1.66667 µM)",97.5,91.7,129,170,125,111,146,185,22.1,269
"C[C@@H](N)c1ccc(C(=O)Nc2ccnc3[nH]ccc23)cc1 + Cc1ccc(NC(=O)c2cccc(N(C)C)c2)cc1NC(=O)c1ccc(O)cc1 [ZM336372] (first compound 0.4 µM, partner dose 2 µM)",179,107,107,77.5,167,118,67.5,109,123,105
